From patent USRE38416E1, “Cross-linking oligonucleotides” (Epoch Biosciences, Inc., priority 1988, dated 2004) come the findings set out here.

Molecules are shown by their SMILES.

This series concerns pHPV-16. As to the kind of experiment: Filter hybridization of nick-translated biotinylated probe to pHPV-16 slotted onto nitrocellulose. Conditions: streptavidin-alkaline phosphatase conjugate with BCIP/NBT substrate. More on the design: species or system human papillomavirus type 16.

In the case of `Nc1ncnc2c1c(CCCCCNC(=O)CCCCCNC(=O)CCCC[C@@H]1SC[C@@H]3NC(=O)N[C@@H]31)nn2[C@H]1C[C@H](O)[C@@H](COP(=O)(O)OP(=O)(O)OP(=O)(O)O)O1` [Example 9, 1-(2-Deoxy-β-D-erythropentofuranosyl)-3-[5-(6-biotinamido)-hexanamidopentyl]pyrazolo[3,4-d]pyrimidin-4-amine 5′-triphosphate.], the “filter hybridization signal compared with probe prepared using bio-11-dUTP” value is reported as “No significant differences”. The “filter hybridization signal compared with probe prepared using bio-11-dUTP” value (listed as Bio-12-dAPPTP) is given as “identical signals”.
